# According to article PMC7005530, “A selective androgen receptor modulator SARM‐2f activates androgen receptor, increases lean body mass, and suppresses blood lipid levels in cynomolgus monkeys” (Pharmacology Research & Perspectives, 2020):
# Assay: Effects on body weight and lean body mass, 4-week administration
# Assay type: in vivo, cynomolgus monkey
# Conditions: 10 mg/kg daily p.o., Day 13, male monkeys n = 3
compound,measurement,value
"CC[C@H]1[C@@H](O)CC(=O)N1c1ccc(C#N)c(C(F)(F)F)c1 [SARM‐2f, 4′‐[(2S,3S)‐2‐Ethyl‐3‐hydroxy‐5‐oxopyrrolidin‐1‐yl]‐2′‐(trifluoromethyl) benzonitrile]",BW increase from pre‐dosing level,8.7% and not significantly increased

# A number of entries come with more than one value. The list is limited to them. An entry can have further records. Values that stand side by side do not match, cause unknown; some may be repeats, others may stem from another dose, organism or construct than stated.
